Laboratory results taken from publication PMC3508985.
No constants are given. Whether binding was seen depends on the method and setting. Binding seen in cells or lysates may run through a third protein.

Target: YC-MYCΔZIP
Experiment: split reporter; split-YFP BiFC in living HeLa cells, transient transfection with DsRed as transfection control; after 2 days 1.5 hours at 30°C for maturation; confocal microscopy

- binding: no binding
B1: YN-ARTD10 (enzyme, UniProt Q53GL7 1-1025)
chain: MVAMAEAEAGVAVEVRGLPPAVPDELLTLYFENRRRSGGGPVLSWQRLGCGGVLTFREPADAERVLAQADHELHGAQLSLRPAPPRAPARLLLQGLPPGTTPQRLEQHVQALLRASGLPVQPCCALASPRPDRALVQLPKPLSEADVRVLEEQAQNLGLEGTLVSLARVPQARAVRVVGDGASVDLLLLELYLENERRSGGGPLEDLQRLPGPLGTVASFQQWQVAERVLQQEHRLQGSELSLVPHYDILEPEELAENTSGGDHPSTQGPRATKHALLRTGGLVTALQGAGTVTMGSGEEPGQSGASLRTGPMVQGRGIMTTGSGQEPGQSGTSLRTGPMGSLGQAEQVSSMPMGSLEHEGLVSLRPVGLQEQEGPMSLGPVGSAGPVETSKGLLGQEGLVEIAMDSPEQEGLVGPMEITMGSLEKAGPVSPGCVKLAGQEGLVEMVLLMEPGAMRFLQLYHEDLLAGLGDVALLPLEGPDMTGFRLCGAQASCQAAEEFLRSLLGSISCHVLCLEHPGSARFLLGPEGQHLLQGLEAQFQCVFGTERLATATLDTGLEEVDPTEALPVLPGNAHTLWTPDSTGGDQEDVSLEEVRELLATLEGLDLDGEDWLPRELEEEGPQEQPEEEVTPGHEEEEPVAPSTVAPRWLEEEAALQLALHRSLEPQGQVAEQEEAAALRQALTLSLLEQPPLEAEEPPDGGTDGKAQLVVHSAFEQDVEELDRALRAALEVHVQEETVGPWRRTLPAELRARLERCHGVSVALRGDCTILRGFGAHPARAARHLVALLAGPWDQSLAFPLAASGPTLAGQTLKGPWNNLERLAENTGEFQEVVRAFYDTLDAARSSIRVVRVERVSHPLLQQQYELYRERLLQRCERRPVEQVLYHGTTAPAVPDICAHGFNRSFCGRNATVYGKGVYFARRASLSVQDRYSPPNADGHKAVFVARVLTGDYGQGRRGLRAPPLRGPGHVLLRYDSAVDCICQPSIFVIFHDTQALPTHLITCEHVPRASPDDPSGLPGRSPDT
